Experimental data: article PMC7819943, “Rice protein-binding microarrays: a tool to detect cis-acting elements near promoter regions in rice”
Some of the results follow.

molecular target: T1, OsSMF1 (Oryza sativa, UniProt Q6ZLB0 1-436); assay: protein-binding microarray (RPBM); PBS, 2% BSA, 51.3 ng/ul salmon testes DNA, 50 uM zinc acetate, 200 nM TF, 25 C, 1 h; high values mean tight binding; conditions: protein: recombinant; tags: N-terminal polyhistidine and DsRed monomer fusion (pET32a); chain copies: 2; label: CyDye5-dUTP incorporated in the synthesized complementary strand; 3' TTTTT single-stranded linker to array surface; dsDNA, one strand shown
T1 sequence: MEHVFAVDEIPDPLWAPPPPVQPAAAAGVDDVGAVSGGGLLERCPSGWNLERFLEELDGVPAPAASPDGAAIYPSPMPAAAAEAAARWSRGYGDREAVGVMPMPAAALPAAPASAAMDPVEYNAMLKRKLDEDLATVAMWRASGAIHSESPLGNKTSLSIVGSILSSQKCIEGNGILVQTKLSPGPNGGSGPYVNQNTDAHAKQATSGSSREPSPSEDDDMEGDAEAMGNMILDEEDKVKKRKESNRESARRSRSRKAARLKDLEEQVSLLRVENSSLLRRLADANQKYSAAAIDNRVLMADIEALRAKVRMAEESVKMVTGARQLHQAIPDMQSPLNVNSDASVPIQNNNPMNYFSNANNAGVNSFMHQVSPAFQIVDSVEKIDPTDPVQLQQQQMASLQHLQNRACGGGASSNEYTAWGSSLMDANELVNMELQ
Method in brief: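 In PBS with 2% BSA, salmon testes DNA and 50 µM zinc acetate, 200 nM protein was incubated on a custom Agilent array at 25 °C for 1 h and then washed off. The array had been made double-stranded by primer extension with Cy5-dUTP and blocked with 2% BSA. The proteins were transcription factors fused N-terminally to polyhistidine and DsRed, expressed in E. coli BL21-CodonPlus and purified on Ni–NTA. The binding signal is per-feature fluorescence intensity (arbitrary units) from an Axon 4000B scanner.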

| Sequence | binding signal |
| --- | --- |
| CCCGAGGCGCAATATAATTGTTCCACGTTACACAGTATATCGGAGTCACCTAGTGCAG | 3290 fluorescence intensity (a.u.) |
| TAGTAGTAGAATACACACACGCACATTGCCTGTGTTGTTACGGAGTCACCTAGTGCAG | 3280 fluorescence intensity (a.u.) |
| AATGGCAGCTACCTCAGCCGTGCTTGCACTTTGGGCAAAACGGAGTCACCTAGTGCAG | 18000 fluorescence intensity (a.u.) |
| GATTGGTAGTATTTAGTTGTGTATAATGTATTATTAGGTTCGGAGTCACCTAGTGCAG | 3720 fluorescence intensity (a.u.) |
| GATGCCGTGTCACCCACCGCCTCCTCCTCTCCCGCCTCGCCGGAGTCACCTAGTGCAG | 8060 fluorescence intensity (a.u.) |
| ATATGTACTTTTGGAATCTCCTATCATGTGCTGCAGCCTCCGGAGTCACCTAGTGCAG | 20900 fluorescence intensity (a.u.) |
| CATTTATGAATCCTTCACATCTCTTCTGGATTGCTCTCTCCGGAGTCACCTAGTGCAG | 22800 fluorescence intensity (a.u.) |
| GCTCCTCCCCTGCTAGTCAGCCAACAACATTCGATCTTGGCGGAGTCACCTAGTGCAG | 3610 fluorescence intensity (a.u.) |
| ATACGCGTACGCCGTGCATACGTGTCGGCGTGTATATATCCGGAGTCACCTAGTGCAG | 33300 fluorescence intensity (a.u.) |
| GACAGGCAGGCCAGAGCGGCGTGAGTGAGCTATACAGGAACGGAGTCACCTAGTGCAG | 18300 fluorescence intensity (a.u.) |
| TATATTTGTCACGTAAGCTCCACATCAGTGCCACATGTGACGGAGTCACCTAGTGCAG | 16800 fluorescence intensity (a.u.) |
| CTGTATCAGATGATCTGGAAGTTTGCTTCCATCATTCAATCGGAGTCACCTAGTGCAG | 3670 fluorescence intensity (a.u.) |
| TGCATTTGCCTTATAGAGTTGTTTCCCTTTTGCAACAATGCGGAGTCACCTAGTGCAG | 25500 fluorescence intensity (a.u.) |
| GCACCGTACTGTGCACGTCATCCATTTGTCTGTTTGTGTTCGGAGTCACCTAGTGCAG | 10000 fluorescence intensity (a.u.) |
| CTGTGGTGGACTTCATTGTGATATACCATGTTTGAGGGTTCGGAGTCACCTAGTGCAG | 3140 fluorescence intensity (a.u.) |
| CTCCATCTCGCAGTCGCAGTGCCAGCTAAGGCCTTGTACACGGAGTCACCTAGTGCAG | 3240 fluorescence intensity (a.u.) |
| CCACTTGGCCCCACCCCACCGGGCGCGTGGCACGAATCTCCGGAGTCACCTAGTGCAG | 3600 fluorescence intensity (a.u.) |
| ACCGACACGCCATGCATGACGGTTGCAGTGCAGGCTCCACCGGAGTCACCTAGTGCAG | 3240 fluorescence intensity (a.u.) |
| TCTGTTCGGCTGCCCGCGCTGCCAGCACGAACAGTGCTGCCGGAGTCACCTAGTGCAG | 4090 fluorescence intensity (a.u.) |
| CTTTATGAGAATGTTAATGCAATTTCTTGGATGCTTAGTGCGGAGTCACCTAGTGCAG | 12900 fluorescence intensity (a.u.) |
| TCTTCGTCGACACCACCCCAGCCAGTGACTCCACATGCTCCGGAGTCACCTAGTGCAG | 3320 fluorescence intensity (a.u.) |

| Sequence | binding signal |
| --- | --- |
| GCCTTTGTGCGCCTTTCTTATGTGTCAAGCCCAAATGCCCCGGAGTCACCTAGTGCAG | 4700 fluorescence intensity (a.u.) |
| AGAGGAGAAGAGATCCAGGGAAGGGAGAGAAACTGTGTGTCGGAGTCACCTAGTGCAG | 20500 fluorescence intensity (a.u.) |
| CCCAAAGACAAAACCCACGAAACGTGTCGTGTCGCCCATCCGGAGTCACCTAGTGCAG | 3900 fluorescence intensity (a.u.) |
| AGGAGGTGAGTGGCTGATCTCCTATTCATAATTGATCATGCGGAGTCACCTAGTGCAG | 3270 fluorescence intensity (a.u.) |
| TTCTTCTTCAGTGTCGTGGCAATCACTATCTGAACTTTTGCGGAGTCACCTAGTGCAG | 5000 fluorescence intensity (a.u.) |
| CCGTCGACATGGCCAATCAATCAATCCTCCAGCAAATTCACGGAGTCACCTAGTGCAG | 3520 fluorescence intensity (a.u.) |
| CACCGTGGATCCCAATCCCACGCCACATCCCACGCCAGCACGGAGTCACCTAGTGCAG | 7830 fluorescence intensity (a.u.) |
| GTCGCTTGTAACTTGTAAGGCGTGTGACTGTTGCCGTGATCGGAGTCACCTAGTGCAG | 3480 fluorescence intensity (a.u.) |
| AAAGGGAGTTGTTAACCGGGACTAATCGTTTCCCCTTAGTCGGAGTCACCTAGTGCAG | 32300 fluorescence intensity (a.u.) |
| CATGAACAATGTGAGGTGTCACAGTGAACAGTATCCTGATCGGAGTCACCTAGTGCAG | 3490 fluorescence intensity (a.u.) |
| AGAGAGTATGGATATTGTGTATACGTCATTACGGCTGCGTCGGAGTCACCTAGTGCAG | 9190 fluorescence intensity (a.u.) |
| CATGGCGTTGTGTGCCACGTCACCTTGCCGCCATCTACTTCGGAGTCACCTAGTGCAG | 8820 fluorescence intensity (a.u.) |
| GAAGAAGCTCGACGCCGACGTGTTCACGCAGCTCGCTCCCCGGAGTCACCTAGTGCAG | 5920 fluorescence intensity (a.u.) |
| CGACCCACCCTGTGTCACGCTCGCGCCGCGGCAAGGGAGCCGGAGTCACCTAGTGCAG | 3290 fluorescence intensity (a.u.) |
| GTTTTGCCATGGGTGTTCTCTTTCTTGGTAGTTCTATTTCCGGAGTCACCTAGTGCAG | 3140 fluorescence intensity (a.u.) |
| GTTTTCTGTTCAACTACTGATAGCATTATCTCAATATGAGCGGAGTCACCTAGTGCAG | 20100 fluorescence intensity (a.u.) |
| TACTAGCTATACCCATTAGCTGCTATGGGTGTTGCTGCAGCGGAGTCACCTAGTGCAG | 3280 fluorescence intensity (a.u.) |
| GCCTTGCTTGCTAGCTAGCTTTGAAGCCAGCCAGCAACGCCGGAGTCACCTAGTGCAG | 20700 fluorescence intensity (a.u.) |
| TGTGCCAACTTAGCGGCGGCACATGGCCCCAAACCGGAGACGGAGTCACCTAGTGCAG | 3310 fluorescence intensity (a.u.) |
| TACTAGCTATATATCTGTTCAACCAGTTCAATCATCCAGTCGGAGTCACCTAGTGCAG | 3240 fluorescence intensity (a.u.) |
| CGCTGACGGCAGTCAGGCGCAGAGGCGAAGTGCGGCGTCACGGAGTCACCTAGTGCAG | 3280 fluorescence intensity (a.u.) |

Random excerpt: three entries already listed.

| Sequence | binding signal |
| --- | --- |
| AGAGAGTATGGATATTGTGTATACGTCATTACGGCTGCGTCGGAGTCACCTAGTGCAG | 9190 fluorescence intensity (a.u.) |
| CGCTGACGGCAGTCAGGCGCAGAGGCGAAGTGCGGCGTCACGGAGTCACCTAGTGCAG | 3280 fluorescence intensity (a.u.) |
| CCGTCGACATGGCCAATCAATCAATCCTCCAGCAAATTCACGGAGTCACCTAGTGCAG | 3520 fluorescence intensity (a.u.) |
